Test results as given in patent publication US6395275.
Where a chain is given by its changes, count along the chain named. These are yes or no findings as the source states them, for the method shown. Some results given as binding are weak or reduced against the parent protein; the word gives no strength.

B1: Fab QA12 (Fab, V domains shown)
VH: LEQSGAEVKKPGASVKVSCQASGYRFSNFTVHWVRQAPGQRFEWMGWINPYNGNKEFSAKFQDRVTFTADTSANTAYMELRSLRSADTAVYYCARVGEWGWDDSPQDNYYMDVWGKGTTVIVSS
VL: ELTQSPGTLSLSPGERATFSCRSSHQLDGSRVAWYQHKPGQAPRLVIHGVSNRASGISDRFSGSGSGTDFTLTITRVEPEDFALYYCQTYGRGIYTFGQGTKLERKR
B2: Fab B (Fab, V domains shown)
VH: B1 VH
VL: B1 VL with Q26T, L27V, D28Y, G29R, S30D, T89V, R92A, G93S, I94S

Tests used:
[1] = molecular target: recombinant gp120 of HIV-1 strain IIIb (HIV-1 strain IIIb) (UniProt P04578); test: phage panning on gp120, competition with soluble Fab 3b3 then acid elution
[2] = molecular target: recombinant gp120 of HIV-1 strain IIIb (HIV-1 strain IIIb) (UniProt P04578); test: phage panning on gp120

Row | Binder | binding [1] | binding [2]
1 | B1 | binds | –
2 | B2 | – | binds
